According to US10520509B2 (Washington State University, priority 2016, dated 2019):

Assay: Fluorescence sensitivity of DDP probe to H2S (Na2S)
Details: λex=360 nm

## [N-]=[N+]=Nc1ccc2c(CC(=O)N3CCN(c4ccc5c(c4)Oc4cc(OC(=O)c6ccccc6SC(=O)c6ccccc6)ccc4C54OC(=O)c5ccccc54)CC3)cc(=O)oc2c1 (centres unmarked) [DDP-1]
  detection limit (S/N=3) for H2S, emission at 452 nm: 100 nm
  detection limit (S/N=3) for H2S, emission at 542 nm: 150 nm
